Laboratory results published in paper PMC12334247.

Tests used:
Test in all cases: two-hybrid; yeast strain PJ694-a; fusions to AD (pDEST22) and BD (pDEST32); -Leu/-Trp selects co-transformation, -Leu/-Trp/-His/-Ade selects for strong interaction
[1] = target: T1, ARIA, an ABAP1 homolog, yeast two-hybrid fusion (Arabidopsis thaliana) (UniProt B9DHT4)
T1 sequence: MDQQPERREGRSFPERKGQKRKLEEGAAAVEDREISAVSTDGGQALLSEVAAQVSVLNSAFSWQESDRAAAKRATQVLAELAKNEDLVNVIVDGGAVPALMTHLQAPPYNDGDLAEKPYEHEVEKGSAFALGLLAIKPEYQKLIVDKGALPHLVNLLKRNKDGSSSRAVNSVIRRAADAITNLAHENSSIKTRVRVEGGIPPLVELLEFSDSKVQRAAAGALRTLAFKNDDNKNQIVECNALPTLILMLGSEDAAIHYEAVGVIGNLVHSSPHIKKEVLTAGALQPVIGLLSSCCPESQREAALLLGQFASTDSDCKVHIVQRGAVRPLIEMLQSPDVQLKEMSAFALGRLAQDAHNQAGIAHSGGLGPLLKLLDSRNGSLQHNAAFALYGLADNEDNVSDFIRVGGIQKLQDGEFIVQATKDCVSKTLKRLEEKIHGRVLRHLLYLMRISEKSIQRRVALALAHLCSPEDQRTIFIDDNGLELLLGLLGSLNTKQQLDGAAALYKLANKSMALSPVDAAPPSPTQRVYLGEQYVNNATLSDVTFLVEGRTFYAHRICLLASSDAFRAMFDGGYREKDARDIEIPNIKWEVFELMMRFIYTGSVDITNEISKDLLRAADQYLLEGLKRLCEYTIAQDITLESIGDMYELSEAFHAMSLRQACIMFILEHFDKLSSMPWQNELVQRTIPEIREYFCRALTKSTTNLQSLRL

[2] = target: T2, KIN11 (SnRK1α2), yeast two-hybrid fusion (Arabidopsis thaliana) (UniProt P92958)
T2 sequence: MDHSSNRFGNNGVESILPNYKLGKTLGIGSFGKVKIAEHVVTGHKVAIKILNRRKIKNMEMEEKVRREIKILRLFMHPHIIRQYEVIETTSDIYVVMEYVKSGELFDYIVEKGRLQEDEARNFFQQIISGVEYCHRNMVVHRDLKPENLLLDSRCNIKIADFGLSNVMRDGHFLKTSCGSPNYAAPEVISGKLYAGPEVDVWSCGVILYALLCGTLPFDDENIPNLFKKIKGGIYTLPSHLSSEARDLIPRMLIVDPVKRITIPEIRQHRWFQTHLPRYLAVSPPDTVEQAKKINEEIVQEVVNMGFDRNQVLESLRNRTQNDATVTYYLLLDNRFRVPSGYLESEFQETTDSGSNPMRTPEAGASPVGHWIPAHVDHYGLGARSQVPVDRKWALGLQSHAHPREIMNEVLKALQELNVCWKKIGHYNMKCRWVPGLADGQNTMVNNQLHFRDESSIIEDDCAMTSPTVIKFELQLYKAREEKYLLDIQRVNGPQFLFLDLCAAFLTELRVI

[3] = target: T3, ORC4 (origin recognition complex subunit 4), yeast two-hybrid fusion (Arabidopsis thaliana) (UniProt Q6EWX1)
T3 sequence: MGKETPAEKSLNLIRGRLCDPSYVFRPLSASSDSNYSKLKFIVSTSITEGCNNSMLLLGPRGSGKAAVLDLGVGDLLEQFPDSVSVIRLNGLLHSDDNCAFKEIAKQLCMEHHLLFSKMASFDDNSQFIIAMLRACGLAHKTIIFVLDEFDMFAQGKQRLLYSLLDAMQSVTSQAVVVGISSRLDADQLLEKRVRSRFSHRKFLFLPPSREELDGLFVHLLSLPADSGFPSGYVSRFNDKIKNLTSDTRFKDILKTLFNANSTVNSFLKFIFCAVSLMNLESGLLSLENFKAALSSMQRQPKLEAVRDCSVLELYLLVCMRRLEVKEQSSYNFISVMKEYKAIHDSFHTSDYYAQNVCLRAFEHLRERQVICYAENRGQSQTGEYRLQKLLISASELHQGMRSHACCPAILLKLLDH

[4] = target: T4, ORC3 (origin recognition complex subunit 3), yeast two-hybrid fusion (Arabidopsis thaliana) (UniProt Q6E7H0)
T4 sequence: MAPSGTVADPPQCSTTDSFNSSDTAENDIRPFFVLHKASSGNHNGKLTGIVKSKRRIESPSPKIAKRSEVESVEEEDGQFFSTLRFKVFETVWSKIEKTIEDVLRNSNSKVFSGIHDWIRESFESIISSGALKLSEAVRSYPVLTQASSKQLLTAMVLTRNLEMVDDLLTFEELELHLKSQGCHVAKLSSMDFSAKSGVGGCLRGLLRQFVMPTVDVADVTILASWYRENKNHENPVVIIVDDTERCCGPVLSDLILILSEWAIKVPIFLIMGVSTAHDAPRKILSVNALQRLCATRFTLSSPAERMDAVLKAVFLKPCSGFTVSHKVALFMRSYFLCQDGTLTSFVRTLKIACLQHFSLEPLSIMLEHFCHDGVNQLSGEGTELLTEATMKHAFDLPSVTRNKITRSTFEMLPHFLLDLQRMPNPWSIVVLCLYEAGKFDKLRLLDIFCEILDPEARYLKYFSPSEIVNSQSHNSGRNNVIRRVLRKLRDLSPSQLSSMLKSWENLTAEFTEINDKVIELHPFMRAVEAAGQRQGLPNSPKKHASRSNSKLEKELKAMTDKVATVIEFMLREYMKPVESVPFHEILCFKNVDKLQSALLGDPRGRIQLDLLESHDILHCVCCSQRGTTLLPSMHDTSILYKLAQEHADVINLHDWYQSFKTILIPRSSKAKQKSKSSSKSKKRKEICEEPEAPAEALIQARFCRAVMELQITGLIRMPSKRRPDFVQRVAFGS

Measured: binding

ABAP1 interacting protein 10 (AIP10), yeast two-hybrid fusion (Arabidopsis thaliana)
no binding: all assays above

These are yes or no findings as the source states them, for the method shown. Where a sequence is shown, tags or fusion partners need not be part of it.
